Construct, isoform or probe ends are uncertain for at least one entry. At least one verdict rests on a figure or table, not on a statement of the authors.
System: PPARγ (isoform 1) + RXRα
Assay: EMSA
Conditions: direct titration, 1 nM probe, no ligand, Kd not in the material; EMSA: 1x PBS, 0.2% BSA, 5 mM DTT, 10% glycerol, 0.02% Triton X-100, room temperature 1 h; competition with 2 nM IR700-P1, PPARγ:RXRα 12 nM:4 nM, competitor 0-2000 nM; recombinant protein; protein details: His (pDEST17),His tag cleaved by TEV; label: IR700

GCCAAACTAGGTCAAAGGTCAAAGTCGAGCCAACCA (double strand) [IR700-labeled P1 probe]
binding result: binds

Source: publication PMC6555819
